Experimental data reported in US20120208291A1.
These are yes or no findings as the source states them, for the method shown. Some binding calls cover weakened binding; strength is not graded here. Where a sequence is shown, tags or fusion partners need not be part of it.

Target: T1, immobilized synaptobrevin protein, SNB(1-94) thioester (UniProt O02495)
T1 sequence (C-terminal thioester reacted with surface-tethered cysteine, looked up): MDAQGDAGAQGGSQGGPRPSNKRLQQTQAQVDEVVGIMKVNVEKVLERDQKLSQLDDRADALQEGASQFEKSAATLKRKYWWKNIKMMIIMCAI
Experiment: single-molecule TIRF microscopy, GFP-syntaxin in solution on immobilized synaptobrevin

B1: GFP labeled syntaxin (protein, UniProt O16000 1-265, looked up, not shown: large carriers)
chain: MTKDRLSALKAAQSEDEQDDDMHMDTGNAQYMEEFFEQVEEIRGSVDIIANNVEEVKKKHSAILSNPVNDQKTKEELDELMAVIKRAANKVRGKLKLIENAIDHDEQGAGNADLRIRKTQHSTLSRRFVEVMTDYNKTQTDYRERCKGRIQRQLDIAGKQVGDEDLEEMIESGNPGVFTQGIITDTQQAKQTLADIEARHNDIMKLESSIRELHDMFMDMAMLVESQGEMVDRIEYNVEHAKEFVDRAVADTKKAVQYQSKARRK
  binding: binds
